Drawing on publication PMC7229167, “Atypical chemokine receptor ACKR2-V41A has decreased CCL2 binding, scavenging, and activation, supporting sustained inflammation and increased Alzheimer’s disease risk” (Scientific Reports, 2020), this text covers binding for one substance.

Sequences of proteins named here, by UniProt entry; tags and fusion partners are left off. Residues count along the entry.
UniProt Q99731, residues 22-98: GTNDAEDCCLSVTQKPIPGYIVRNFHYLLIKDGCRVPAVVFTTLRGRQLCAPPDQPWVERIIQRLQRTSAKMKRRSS

Changes are numbered by the printed parent chain. Results are given in words; binding and its absence hold for the method and conditions named.

For assay [1], the target named is T1, Atypical chemokine receptor 2 variant V41A (ACKR2-V41A; rs2228467) (human) (UniProt O00590).
T1 sequence: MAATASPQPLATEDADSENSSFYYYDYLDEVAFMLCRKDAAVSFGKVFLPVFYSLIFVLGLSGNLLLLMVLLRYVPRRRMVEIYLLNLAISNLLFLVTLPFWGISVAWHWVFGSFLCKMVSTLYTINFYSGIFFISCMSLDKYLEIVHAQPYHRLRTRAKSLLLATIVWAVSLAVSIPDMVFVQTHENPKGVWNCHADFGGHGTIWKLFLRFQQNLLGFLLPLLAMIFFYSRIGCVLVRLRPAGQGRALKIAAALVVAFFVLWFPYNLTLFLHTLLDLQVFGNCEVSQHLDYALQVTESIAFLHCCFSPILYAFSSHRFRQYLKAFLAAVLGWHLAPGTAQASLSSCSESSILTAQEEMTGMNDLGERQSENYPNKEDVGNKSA
Description: flow cytometry on cells; direct binding: AF647-conjugated chemokine incubated with transfected CHO-k1 cells at 37 °C for 45 minutes, two washes, BD Accuri; percent of chemokine-positive cells normalised to percent of ACKR2-positive cells; titration with non-linear analysis for Kd; only the binder purified. (A flow cytometer gives signals particle by particle.)

Assay [2] deals with T2, Atypical chemokine receptor 2, wild type (ACKR2-WT) (human) (UniProt O00590).
T2 sequence: T1 sequence with A41V
The description is as above.

With “AF647-conjugated chemokine ligand 19 (CCL19-AF647) (from UniProt Q99731 22-98)”, the binding result in assay [1] and in assay [2] was “no binding” in each case.
